The text below walks through data of paper PMC4937518.

Experiment [1] deals with mesoderm development candidate 2 (MESDC2) (human (endogenous in U2OS)) (UniProt Q14696). The experiment can be described thus: SEC; protein correlation profiling of native (not crosslinked) U2OS cell extract, 40 fractions, LC-MS/MS; RAW files of the authors' previous native SEC analysis (ref. 6) analysed again here together with the crosslinked data set.
Experiment [2] addresses T1, aspartate beta-hydroxylase (ASPH) (human (endogenous in U2OS)) (UniProt Q12797).
T1 sequence: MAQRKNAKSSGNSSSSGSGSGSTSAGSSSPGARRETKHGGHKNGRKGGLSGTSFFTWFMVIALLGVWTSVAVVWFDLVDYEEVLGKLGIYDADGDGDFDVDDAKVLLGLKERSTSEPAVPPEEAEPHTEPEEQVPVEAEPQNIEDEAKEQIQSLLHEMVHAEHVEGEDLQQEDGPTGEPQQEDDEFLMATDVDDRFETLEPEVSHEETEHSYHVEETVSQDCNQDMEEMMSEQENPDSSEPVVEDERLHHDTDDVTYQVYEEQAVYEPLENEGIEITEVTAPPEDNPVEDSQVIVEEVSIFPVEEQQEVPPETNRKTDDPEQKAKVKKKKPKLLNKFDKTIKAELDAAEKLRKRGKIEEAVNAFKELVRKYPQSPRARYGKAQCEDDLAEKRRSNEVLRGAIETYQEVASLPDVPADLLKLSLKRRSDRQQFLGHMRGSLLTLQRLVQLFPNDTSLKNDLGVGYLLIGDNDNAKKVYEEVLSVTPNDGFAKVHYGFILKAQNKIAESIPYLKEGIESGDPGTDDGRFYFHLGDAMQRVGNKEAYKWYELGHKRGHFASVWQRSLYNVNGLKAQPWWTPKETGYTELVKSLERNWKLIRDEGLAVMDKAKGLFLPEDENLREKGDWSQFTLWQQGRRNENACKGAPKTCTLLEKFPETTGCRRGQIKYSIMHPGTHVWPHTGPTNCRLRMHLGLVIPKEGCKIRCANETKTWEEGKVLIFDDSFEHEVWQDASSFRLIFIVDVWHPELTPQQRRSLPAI
The experiment is described as above.

In experiment [3] the target is T1, aspartate beta-hydroxylase (ASPH) (human (endogenous in U2OS)). The experiment can be described thus: cross-linking + SEC; protein correlation profiling: U2OS cells crosslinked in vivo with 6% formaldehyde (30 min, room temperature), lysed in 4% SDS with TCEP, denaturing SEC (BioBasic SEC1000, 0.2% SDS, 100 mM NaCl, 10 mM NaPO4 pH 6.0, 30 °C), 48 fractions, crosslinks reversed by heat, LC-MS/MS, LFQ elution profiles, n = 3.

Experiment [4] addresses STX4 (human (endogenous in U2OS)) (UniProt Q12846). The experiment is described as above.

These are yes or no findings as the source states them, for the method shown. For some of these results: In cells and extracts the contact can be indirect. Some entries that bind do so weakly or less than the wild type.

B1: mesoderm development candidate 2 (MESDC2) (protein, UniProt Q14696 34-234)
chain: AEGSPGTPDESTPPPRKKKKDIRDYNDADMARLLEQWEKDDDIEEGDLPEHKRPSAPVDFSKIDPSKPESILKMTKKGKTLMMFVTVSGSPTEKETEEITSLWQGSLFNANYDVQRFIVGSDRAIFMLRDGSYAWEIKDFLVGQDRCADVTLEGQVYPGKGGGSKEKNKTKQDKGKKKKEGDLKSRSSKEENRAGNKREDL
As for B1, the binding entry is “no binding” in experiment [1]; “no binding (condition: native extract, not crosslinked)” in experiment [2]; “binds weakly” in experiment [3].

B2: SNAP23 (protein, UniProt O00161 1-211)
chain: MDNLSSEEIQQRAHQITDESLESTRRILGLAIESQDAGIKTITMLDEQKEQLNRIEEGLDQINKDMRETEKTLTELNKCCGLCVCPCNRTKNFESGKAYKTTWGDGGENSPCNVVSKQPGPVTNGQLQQPTTGAASGGYIKRITNDAREDEMEENLTQVGSILGNLKDMALNIGNEIDAQNPQIKRITDKADTNRDRIDIANARAKKLIDS
On to B2, for which, in experiment [4], the binding entry is recorded as “binds”.
